Measurements reported in PubChem BioAssay AID1259308 (NCATS, 2017).
This is an unselected part of about 59,000 reagents. In the full data, about 1,510 (2.6%) got an active call. 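Calls use total luciferase alone and ignore viability, so some active siRNAs may act by altering cell number.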 The numbers tell different reagents against one gene apart. Further read-outs or replicates are left out here.

- Screen: 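Knock-downs that increase output of a recombinant reporter protein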 (primary screen)
- Cells: human HEK293 embryonic kidney cells stably expressing firefly luciferase (HEK-CMV-Luc2-Hygro)
- Reagent: single siRNA against human genes, 0.8 pmol siRNA per well
- Time to read-out: 72 h
- Measurement: 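Luciferase light (ONE-Glo) measured on one replicate plate set and viability (CellTiter-Glo) on the other, scaled to a negative control siRNA, with robust z-scores and luciferase per cell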
- Scale: total luciferase, z-score and total luciferase, % of control: higher = more reporter protein produced
- Hit rule: 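Active when the median/MAD z-score for overall luciferase is greater than 3; a gene was taken forward for validation with new siRNAs if at least two of its three siRNAs passed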
- Calls: active = raised luciferase; inactive = no rise

| Target gene | reagent | total luciferase, z-score | total luciferase, % of control | call |
| --- | --- | --- | --- | --- |
| CC2D2A (coiled-coil and C2 domain containing 2A) | 1 | -0.501 | 71.9 | inactive |
| CC2D2A (coiled-coil and C2 domain containing 2A) | 2 | 0.424 | 90.3 | inactive |
| CC2D2A (coiled-coil and C2 domain containing 2A) | 3 | -0.926 | 63.5 | inactive |
| MROH6 (maestro heat like repeat family member 6) | 1 | 0.0298 | 82.5 | inactive |
| MROH6 (maestro heat like repeat family member 6) | 2 | 0.306 | 88 | inactive |
| MROH6 (maestro heat like repeat family member 6) | 3 | -2.76 | 27 | inactive |
| RAB2B (RAB2B, member RAS oncogene family) | 1 | -0.264 | 76.6 | inactive |
| RAB2B (RAB2B, member RAS oncogene family) | 2 | 1.15 | 105 | inactive |
| RAB2B (RAB2B, member RAS oncogene family) | 3 | 0.132 | 84.5 | inactive |
| CCNYL2 (cyclin Y like 2 (pseudogene)) | 1 | -0.594 | 70.1 | inactive |
| CCNYL2 (cyclin Y like 2 (pseudogene)) | 2 | 0.223 | 86.3 | inactive |
| CCNYL2 (cyclin Y like 2 (pseudogene)) | 3 | 1.51 | 112 | inactive |
| DNAH14 (dynein axonemal heavy chain 14) | 1 | 4.42 | 170 | active |
| DNAH14 (dynein axonemal heavy chain 14) | 2 | -0.981 | 62.4 | inactive |
| DNAH14 (dynein axonemal heavy chain 14) | 3 | -0.893 | 64.1 | inactive |
| DNAH14 (dynein axonemal heavy chain 14) | 4 | 0.109 | 84.1 | inactive |
| DNAH14 (dynein axonemal heavy chain 14) | 5 | -0.396 | 74 | inactive |
| DNAH14 (dynein axonemal heavy chain 14) | 6 | -1.17 | 58.7 | inactive |
| RNFT1 (ring finger protein, transmembrane 1) | 1 | 0.981 | 101 | inactive |
| RNFT1 (ring finger protein, transmembrane 1) | 2 | -0.354 | 74.8 | inactive |
| RNFT1 (ring finger protein, transmembrane 1) | 3 | 2.15 | 125 | inactive |
| ST6GALNAC5 (ST6 N-acetylgalactosaminide alpha-2,6-sialyltransferase 5) | 1 | -0.991 | 62.2 | inactive |
| ST6GALNAC5 (ST6 N-acetylgalactosaminide alpha-2,6-sialyltransferase 5) | 2 | -1.21 | 57.8 | inactive |
| ST6GALNAC5 (ST6 N-acetylgalactosaminide alpha-2,6-sialyltransferase 5) | 3 | -0.208 | 77.7 | inactive |

Active calls, among the entries above:
| Target gene | reagent | total luciferase, z-score | total luciferase, % of control | call |
| --- | --- | --- | --- | --- |
| DNAH14 (dynein axonemal heavy chain 14) | 1 | 4.42 | 170 | active |
